Results are given in words; binding and its absence hold for the method and conditions named. Binding seen in cells or lysates may run through a third protein. A result given as binding can be weak or reduced; the word gives no strength. Where a sequence is shown, tags or fusion partners need not be part of it.
Columns and labels:
Assay in all cases: co-IP; FLAG-tagged and V5-tagged proteins coexpressed in HEK293T cells (calcium phosphate, 24 h); lysis in 1% Triton X-100, 20 mM Tris pH 7.5, 50 mM NaCl, 50 mM NaF, 15 mM Na4P2O7, 0.1 mM EDTA; anti-FLAG M2 agarose beads 2 h; Western blot with anti-V5 and anti-FLAG
[1] = molecular target: T1, FLAG-tagged NEK8 (NIMA-related kinase 8) (UniProt Q86SG6)
T1 sequence: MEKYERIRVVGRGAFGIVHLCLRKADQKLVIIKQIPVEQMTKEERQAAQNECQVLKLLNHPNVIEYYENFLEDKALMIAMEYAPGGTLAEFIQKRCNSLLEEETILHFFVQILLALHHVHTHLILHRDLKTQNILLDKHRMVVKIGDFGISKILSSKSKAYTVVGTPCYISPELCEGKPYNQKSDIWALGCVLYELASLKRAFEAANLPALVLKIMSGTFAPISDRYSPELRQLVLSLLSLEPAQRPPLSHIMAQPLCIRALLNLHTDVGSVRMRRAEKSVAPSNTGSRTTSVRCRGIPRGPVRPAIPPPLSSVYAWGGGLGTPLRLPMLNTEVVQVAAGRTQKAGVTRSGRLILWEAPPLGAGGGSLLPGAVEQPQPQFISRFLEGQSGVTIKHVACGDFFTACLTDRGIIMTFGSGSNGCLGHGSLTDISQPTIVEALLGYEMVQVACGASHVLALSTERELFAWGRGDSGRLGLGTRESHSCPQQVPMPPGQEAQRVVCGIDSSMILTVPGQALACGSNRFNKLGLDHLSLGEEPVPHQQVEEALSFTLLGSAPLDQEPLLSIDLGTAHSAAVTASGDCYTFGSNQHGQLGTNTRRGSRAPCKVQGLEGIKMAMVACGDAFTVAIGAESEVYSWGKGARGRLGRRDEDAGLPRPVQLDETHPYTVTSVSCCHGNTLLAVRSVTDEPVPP

[2] = molecular target: T2, FLAG-tagged INVS (inversin) (UniProt Q9Y283)
T2 sequence: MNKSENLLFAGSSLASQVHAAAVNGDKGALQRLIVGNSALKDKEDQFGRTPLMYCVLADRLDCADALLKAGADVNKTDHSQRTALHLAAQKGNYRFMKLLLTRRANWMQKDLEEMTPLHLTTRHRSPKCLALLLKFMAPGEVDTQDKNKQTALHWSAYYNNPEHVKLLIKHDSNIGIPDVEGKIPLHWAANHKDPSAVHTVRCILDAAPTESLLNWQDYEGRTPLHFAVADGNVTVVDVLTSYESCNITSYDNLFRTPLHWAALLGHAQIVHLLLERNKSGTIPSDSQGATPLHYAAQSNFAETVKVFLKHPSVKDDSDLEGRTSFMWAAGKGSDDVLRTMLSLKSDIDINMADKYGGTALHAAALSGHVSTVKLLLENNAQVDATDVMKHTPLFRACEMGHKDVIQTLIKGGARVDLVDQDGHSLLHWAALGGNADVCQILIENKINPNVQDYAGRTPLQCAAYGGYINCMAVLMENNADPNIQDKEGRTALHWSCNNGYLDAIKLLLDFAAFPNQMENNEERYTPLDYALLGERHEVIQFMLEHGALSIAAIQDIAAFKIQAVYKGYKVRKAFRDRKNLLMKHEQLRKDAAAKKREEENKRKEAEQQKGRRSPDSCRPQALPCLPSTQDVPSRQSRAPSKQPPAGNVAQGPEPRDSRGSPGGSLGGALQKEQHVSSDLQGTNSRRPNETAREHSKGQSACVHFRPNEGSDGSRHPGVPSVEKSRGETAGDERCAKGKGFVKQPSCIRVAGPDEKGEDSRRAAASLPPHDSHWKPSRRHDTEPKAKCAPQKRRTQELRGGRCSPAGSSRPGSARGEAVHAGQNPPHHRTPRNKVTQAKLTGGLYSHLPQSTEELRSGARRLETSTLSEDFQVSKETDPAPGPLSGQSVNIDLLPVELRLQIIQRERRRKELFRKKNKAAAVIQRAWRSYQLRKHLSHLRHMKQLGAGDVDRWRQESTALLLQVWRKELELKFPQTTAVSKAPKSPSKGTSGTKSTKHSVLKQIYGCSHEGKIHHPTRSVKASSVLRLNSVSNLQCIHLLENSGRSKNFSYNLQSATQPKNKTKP

[3] = molecular target: T3, FLAG-tagged NME3 (NME/NM23 nucleoside-diphosphate kinase 3), wild type (human) (UniProt Q13232)
T3 sequence: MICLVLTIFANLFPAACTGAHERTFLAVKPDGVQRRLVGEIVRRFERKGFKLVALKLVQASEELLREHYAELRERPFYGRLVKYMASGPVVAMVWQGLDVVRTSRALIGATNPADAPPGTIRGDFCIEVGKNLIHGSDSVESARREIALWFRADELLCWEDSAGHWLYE

binding [1]: binds
binding [2]: binds
binding [3]: binds
Substance: V5-tagged NEK6 (human (cDNA from 293T cells)) (enzyme)

Reference: PMC6166740
